Laboratory results from paper PMC11336912.
Results are given in words; binding and its absence hold for the method and conditions named. Binding seen in cells or lysates may run through a third protein. A yes stands for co-enrichment or nearness to the bait. Other partners may have been found.

The chains behind the UniProt entries cited, without tags or fusion partners.
UniProt Q7TPH6: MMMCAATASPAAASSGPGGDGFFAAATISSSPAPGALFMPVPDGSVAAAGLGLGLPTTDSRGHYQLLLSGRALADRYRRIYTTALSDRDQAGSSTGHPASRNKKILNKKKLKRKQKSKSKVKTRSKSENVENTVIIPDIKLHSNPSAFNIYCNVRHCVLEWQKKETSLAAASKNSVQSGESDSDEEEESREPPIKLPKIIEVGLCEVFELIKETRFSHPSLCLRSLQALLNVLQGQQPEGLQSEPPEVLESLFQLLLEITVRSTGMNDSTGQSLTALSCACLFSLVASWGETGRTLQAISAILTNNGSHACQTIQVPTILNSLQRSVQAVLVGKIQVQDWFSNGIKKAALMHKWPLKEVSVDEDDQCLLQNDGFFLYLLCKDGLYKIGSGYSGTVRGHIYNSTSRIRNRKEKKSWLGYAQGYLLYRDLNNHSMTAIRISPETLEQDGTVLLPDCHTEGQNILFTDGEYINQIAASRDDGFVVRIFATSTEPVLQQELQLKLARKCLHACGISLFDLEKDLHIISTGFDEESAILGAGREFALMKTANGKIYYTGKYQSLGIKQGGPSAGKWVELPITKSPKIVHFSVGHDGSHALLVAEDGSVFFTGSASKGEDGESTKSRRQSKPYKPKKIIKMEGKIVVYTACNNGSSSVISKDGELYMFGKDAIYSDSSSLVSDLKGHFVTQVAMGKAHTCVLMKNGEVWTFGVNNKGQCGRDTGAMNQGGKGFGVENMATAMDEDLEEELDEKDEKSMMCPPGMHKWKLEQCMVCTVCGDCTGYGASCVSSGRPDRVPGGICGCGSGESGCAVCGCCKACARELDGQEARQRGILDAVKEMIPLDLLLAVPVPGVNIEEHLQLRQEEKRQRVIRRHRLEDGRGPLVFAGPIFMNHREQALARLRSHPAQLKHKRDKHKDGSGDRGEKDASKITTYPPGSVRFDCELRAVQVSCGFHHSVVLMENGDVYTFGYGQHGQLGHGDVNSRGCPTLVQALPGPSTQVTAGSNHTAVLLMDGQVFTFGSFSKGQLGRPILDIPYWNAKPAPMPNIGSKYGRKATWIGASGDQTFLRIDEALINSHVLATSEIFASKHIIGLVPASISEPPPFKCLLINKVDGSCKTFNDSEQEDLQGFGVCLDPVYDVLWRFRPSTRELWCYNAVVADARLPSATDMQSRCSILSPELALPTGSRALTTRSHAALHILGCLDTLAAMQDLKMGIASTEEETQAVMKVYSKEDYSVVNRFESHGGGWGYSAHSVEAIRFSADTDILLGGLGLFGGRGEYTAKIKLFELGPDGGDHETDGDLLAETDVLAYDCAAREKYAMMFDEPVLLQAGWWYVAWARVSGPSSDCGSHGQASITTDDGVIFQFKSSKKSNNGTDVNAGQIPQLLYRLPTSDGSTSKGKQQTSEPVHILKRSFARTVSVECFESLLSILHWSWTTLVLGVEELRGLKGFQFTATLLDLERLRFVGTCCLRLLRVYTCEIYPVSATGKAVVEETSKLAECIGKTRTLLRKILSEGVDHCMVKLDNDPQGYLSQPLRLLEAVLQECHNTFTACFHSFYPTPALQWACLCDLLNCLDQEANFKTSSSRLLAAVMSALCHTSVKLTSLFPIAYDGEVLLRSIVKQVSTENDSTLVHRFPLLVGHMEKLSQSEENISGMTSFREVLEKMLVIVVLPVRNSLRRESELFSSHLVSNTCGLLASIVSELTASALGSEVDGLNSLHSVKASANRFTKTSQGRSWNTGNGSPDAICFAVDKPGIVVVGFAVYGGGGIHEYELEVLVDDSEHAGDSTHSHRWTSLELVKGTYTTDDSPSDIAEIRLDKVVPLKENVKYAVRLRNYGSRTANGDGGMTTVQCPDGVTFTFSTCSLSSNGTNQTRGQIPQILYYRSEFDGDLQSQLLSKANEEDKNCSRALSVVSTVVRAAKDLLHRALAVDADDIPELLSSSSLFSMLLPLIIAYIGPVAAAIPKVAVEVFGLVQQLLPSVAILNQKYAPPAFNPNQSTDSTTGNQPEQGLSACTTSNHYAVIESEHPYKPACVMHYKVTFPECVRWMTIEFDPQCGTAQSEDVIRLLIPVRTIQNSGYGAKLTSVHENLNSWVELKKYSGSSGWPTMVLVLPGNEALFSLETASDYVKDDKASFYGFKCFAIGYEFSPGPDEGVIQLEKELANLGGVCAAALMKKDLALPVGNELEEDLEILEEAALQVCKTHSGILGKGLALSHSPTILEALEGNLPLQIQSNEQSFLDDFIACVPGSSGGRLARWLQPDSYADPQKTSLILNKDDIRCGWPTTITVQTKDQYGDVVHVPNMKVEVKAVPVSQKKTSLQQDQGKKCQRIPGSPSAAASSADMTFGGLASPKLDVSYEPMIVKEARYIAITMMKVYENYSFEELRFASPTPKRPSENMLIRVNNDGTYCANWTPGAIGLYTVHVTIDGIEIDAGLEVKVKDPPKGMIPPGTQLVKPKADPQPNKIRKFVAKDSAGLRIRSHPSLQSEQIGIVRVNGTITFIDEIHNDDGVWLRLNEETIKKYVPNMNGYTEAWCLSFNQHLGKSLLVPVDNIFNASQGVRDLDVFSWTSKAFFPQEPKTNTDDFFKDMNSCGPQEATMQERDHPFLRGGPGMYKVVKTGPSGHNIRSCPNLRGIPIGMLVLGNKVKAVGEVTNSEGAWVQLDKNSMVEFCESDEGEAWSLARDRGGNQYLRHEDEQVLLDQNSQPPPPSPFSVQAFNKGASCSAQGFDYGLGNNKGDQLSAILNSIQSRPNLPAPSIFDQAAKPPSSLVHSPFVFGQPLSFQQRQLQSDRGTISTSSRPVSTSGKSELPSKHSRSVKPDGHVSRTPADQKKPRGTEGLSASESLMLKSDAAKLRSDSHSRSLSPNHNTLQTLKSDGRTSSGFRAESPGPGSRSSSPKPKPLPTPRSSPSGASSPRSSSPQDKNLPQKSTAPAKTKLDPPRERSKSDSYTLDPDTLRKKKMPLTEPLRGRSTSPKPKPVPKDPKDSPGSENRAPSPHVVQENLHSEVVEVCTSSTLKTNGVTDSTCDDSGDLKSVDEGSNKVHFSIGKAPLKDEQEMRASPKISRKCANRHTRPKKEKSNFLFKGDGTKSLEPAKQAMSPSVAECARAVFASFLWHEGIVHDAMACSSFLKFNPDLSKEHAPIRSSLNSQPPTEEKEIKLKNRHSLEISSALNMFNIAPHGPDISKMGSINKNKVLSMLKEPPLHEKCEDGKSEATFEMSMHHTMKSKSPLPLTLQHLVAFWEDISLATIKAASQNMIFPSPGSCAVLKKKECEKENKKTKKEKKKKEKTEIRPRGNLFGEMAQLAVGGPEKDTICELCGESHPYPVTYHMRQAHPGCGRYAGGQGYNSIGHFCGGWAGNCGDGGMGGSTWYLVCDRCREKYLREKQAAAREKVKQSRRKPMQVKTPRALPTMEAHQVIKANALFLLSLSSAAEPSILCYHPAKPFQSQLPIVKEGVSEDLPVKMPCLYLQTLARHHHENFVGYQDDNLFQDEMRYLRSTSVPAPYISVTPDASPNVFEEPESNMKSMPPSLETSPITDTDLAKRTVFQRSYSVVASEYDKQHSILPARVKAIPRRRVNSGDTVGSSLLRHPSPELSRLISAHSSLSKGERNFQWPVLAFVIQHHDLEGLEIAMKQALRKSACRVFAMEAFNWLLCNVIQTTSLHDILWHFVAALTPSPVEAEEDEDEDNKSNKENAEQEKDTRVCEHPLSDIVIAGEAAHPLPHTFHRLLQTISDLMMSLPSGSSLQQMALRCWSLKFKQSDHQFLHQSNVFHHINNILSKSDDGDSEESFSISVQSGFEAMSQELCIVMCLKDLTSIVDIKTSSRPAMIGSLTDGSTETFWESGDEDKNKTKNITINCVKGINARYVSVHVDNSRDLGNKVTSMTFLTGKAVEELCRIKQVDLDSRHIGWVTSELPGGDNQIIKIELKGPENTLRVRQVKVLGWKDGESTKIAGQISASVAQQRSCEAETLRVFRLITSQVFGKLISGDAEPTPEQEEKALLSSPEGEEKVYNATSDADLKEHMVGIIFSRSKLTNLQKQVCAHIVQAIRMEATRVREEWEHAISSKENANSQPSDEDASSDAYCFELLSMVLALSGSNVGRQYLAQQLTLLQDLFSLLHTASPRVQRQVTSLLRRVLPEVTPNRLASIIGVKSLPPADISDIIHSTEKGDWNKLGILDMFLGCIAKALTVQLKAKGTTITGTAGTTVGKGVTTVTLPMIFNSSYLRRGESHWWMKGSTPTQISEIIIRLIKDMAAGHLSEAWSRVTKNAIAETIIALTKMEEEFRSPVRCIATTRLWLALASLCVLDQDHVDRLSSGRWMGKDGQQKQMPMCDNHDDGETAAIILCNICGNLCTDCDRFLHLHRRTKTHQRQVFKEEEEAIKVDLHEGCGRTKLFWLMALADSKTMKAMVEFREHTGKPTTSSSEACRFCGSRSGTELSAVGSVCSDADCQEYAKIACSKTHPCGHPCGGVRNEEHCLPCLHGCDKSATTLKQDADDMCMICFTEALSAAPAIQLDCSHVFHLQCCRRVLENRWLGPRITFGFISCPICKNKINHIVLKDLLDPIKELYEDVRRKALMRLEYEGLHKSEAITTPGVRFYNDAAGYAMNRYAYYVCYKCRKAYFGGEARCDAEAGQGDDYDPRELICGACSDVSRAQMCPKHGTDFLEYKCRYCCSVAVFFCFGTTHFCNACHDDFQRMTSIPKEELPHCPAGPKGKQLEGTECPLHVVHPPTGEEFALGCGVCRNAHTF

Target: MYCBP2 (endogenous, microglia) (mouse (endogenous in primary microglia)) (UniProt Q7TPH6)
Assay: affinity purification with mass spectrometry; IP-MS to identify proteins interacting with MYCBP2; in microglia according to the discussion

B1: S100A9 (endogenous, microglia) (protein, UniProt P31725 1-113)
chain: MANKAPSQMERSITTIIDTFHQYSRKEGHPDTLSKKEFRQMVEAQLATFMKKEKRNEALINDIMEDLDTNQDNQLSFEECMMLMAKLIFACHEKLHENNPRGHGHSHGKGCGK
- binding: binds
